Converted amounts (≈) assume the structure as drawn.
Tested on: C. albicans MTCC 183
Experiment: MIC, microtiter plate dilution assay
Format: cell-based
Conditions: Candida albicans, MTCC183, YMB, 5 × 10^5 CFU/ml, 37°C, OD 600 nm after 48 h
Procedure: The antimicrobial activity of HPLC purified compounds was determined against various test strains including S. aureus MTCC 1430, Vibrio cholera MTCC 3904, Bacillus subtilis MTCC 121, Listeria monocytogenes MTCC 839, C. albicans MTCC 183, C. albicans MTCC 1637, C. albicans MTCC 227, C. tropicalis MTCC 184, C. glabrata MTCC 3019, and C. inconspicua MTCC 1074. Antimicrobial activity was also tested against clinical Candida strains and phytopathogenic fungi viz. Fusarium moniliforme MTCC 158, Alternaria brassicicola MTCC 2102 and Colletotrichum acutatum MTCC 1037. Bacterial and Candida test strains were grown in NB and yeast malt broth (YMB), respectively. Fungal test strains were grown in potato dextrose broth (PDB). Minimum inhibitory concentrations (MICs) of purified compounds were evaluated against test organisms by using a microtiter plate dilution assay. Mid-log-phase test strains (5 × 10^5 CFU/ml) were incubated in a 96-well plate with different concentrations of the lipopeptides for 24–48 h at 37°C (final volume of 200 μl). OD was measured at 600 nm after 24 and 48 h for bacteria and yeast, respectively, using an ELISA microplate reader (Thermo Scientific, United States). MIC against phytopathogenic fungi was determined using the 96-well microtiter plate method ([Sharma et al., 2020]).

MIC: 20 µg/mL (≈ 65.3 µM)
Structure (SMILES): OC(Cn1cncn1)(Cn1cncn1)c1ccc(F)cc1F [Fluconazole]
